Test results from PubChem BioAssay AID238 (DTP/NCI, 2004).
The list is a part of this screen's results and no random one: it gathers tests that were run many times, whatever their T/C, doses with no T/C, and many T/C values between a quarter and a half above the control. Other doses and runs of a compound stand elsewhere. T/C is the treated group as % of the vehicle group. Some entries give survivors of the animals treated and no T/C: the source files T/C as zero there, which appears to mark a toxic dose or a test without result, not a measured value. Some survivor counts are full or nearly so, which does not show that the dose was tolerated: the source hardly ever lists a survival T/C far under the control, and the zero likely stands for such cases as well. Survivors were counted at the toxicity check, usually on the fifth day, unless a day is given; later deaths do not show. Schedule codes are those of the source, taken here to give the interval after Q, in days (D) or hours (H), and the number of doses after X. Some entries were tested several times; their values stand side by side, smallest first. For survival time, this PubChem deposit counts one and a half times the control or more as active, and values a quarter to a half above the control carry no call in these data; other NCI protocols may use other cut-offs. Signs of the kind (2×) say how often a value occurs here.

Test system: CAF1 mice, leiomyosarcoma No.2 ip, survival T/C%
Assay: NCI In Vivo Anticancer Drug Screen. Data for tumor model Leiomyosarcoma (No. 2) (intraperitoneal) in CAF1 mice
Conditions: T/C endpoint: mean survival time, schedule: Q01DX010 (ip), vehicle: saline, higher T/C = longer survival
Description: The antitumor activity of compounds was measured in mice bearing transplantable tumors. Survival or tumor size were measured and the results are expressed as the measurement made in the treated group (T) divided by the measurement made in the vehicle treated control group (C). The tumor model used in this assay is Leiomyosarcoma (No. 2) (intraperitoneal) in CAF1 mice

Q: Which survivor count (dose: 1600.0 mg/kg/injection) does the source give for O=c1cnn(C2OC(CO)C(O)C2O)c(=O)[nH]1 (centres undefined) here?
A: 6 of 6

Q: With COc1ccc2c(c1OC)C(=O)O[C@@H]2[C@H]1c2c(cc3c(c2OC)OCO3)CCN1C as the compound, how does the survivor count (dose: 62.5 mg/kg/injection) read?
A: 6 of 6

Q: And the survivor count (dose: 125.0 mg/kg/injection)?
A: 6 of 6

Q: And the survivor count (dose: 250.0 mg/kg/injection)?
A: 5 of 6

Q: With Nc1nc(=S)c2[nH]cnc2[nH]1 as the compound, how does the survivor count (dose: 5.0 mg/kg/injection) read?
A: 6 of 6

Q: And the survivor count (dose: 10.0 mg/kg/injection)?
A: 6 of 6

Q: Which results are given for O=C(O)CCCc1ccc(N(CCCl)CCCl)cc1?
A: T/C (dose: 3.13 mg/kg/injection): 125 % of control (2×); survivor count (dose: 25.0 mg/kg/injection): 0 of 6 and 2 of 6

Q: With CCOC(=O)c1[nH]c2ccccc2c1CN(CCCl)CCCl as the compound, how does the survivor count (dose: 80.0 mg/kg/injection) read?
A: 0 of 6

Q: With OCC1OC(n2cnc3c(Cl)ncnc32)C(O)C1O (centres undefined) as the compound, how does the survivor count (dose: 62.5 mg/kg/injection) read?
A: 6 of 6

Q: And the survivor count (dose: 125.0 mg/kg/injection)?
A: 6 of 6

Q: What about the survivor count (dose: 250.0 mg/kg/injection) of the same compound?
A: 6 of 6

Q: And the survivor count (dose: 500.0 mg/kg/injection)?
A: 5 of 6 and 6 of 6

Q: For CN(C)c1ccc(Nc2c3ccccc3nc3ccccc23)cc1, which T/C (dose: 36.0 mg/kg/injection) is on record?
A: 131 % of control

Q: And the T/C (dose: 54.0 mg/kg/injection)?
A: 127 % of control

Q: What about the T/C (dose: 80.0 mg/kg/injection) of the same compound?
A: 140 % of control

Q: And the survivor count (dose: 120.0 mg/kg/injection)?
A: 5 of 6

Q: Which survivor count (dose: 100.0 mg/kg/injection) does the source give for O=c1c(O)cccc2cc(O)c(O)c(O)c12 here?
A: 6 of 6

Q: What about the survivor count (dose: 200.0 mg/kg/injection) of the same compound?
A: 6 of 6
